Data from the supplement of paper PMC7858590.
± gives the standard deviation of the averaged measurements. Over roughly 3,800 compounds, “cell shape (eccentricity) Z-score vs DMSO control” has its median near 1.1; the lowest 2% begin near -4.7. The list shows a part of the results.

System: human monocyte-derived macrophages (M0)
Test: cell shape (eccentricity) Z-score vs DMSO control; higher = more elongated, M2-like morphology
Details: 20 µM; 24 h; macrophage state: M0 (M-CSF)
Procedure: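 Primary human monocyte-derived macrophages (M-CSF differentiated, pooled from 4 donors, 5000 cells/well in 384-well plates) were treated with each compound at 20 uM for 24 h, then fixed and stained with phalloidin/DAPI and imaged on an Opera Phenix (6 fields, about 1000 cells/well). Cell eccentricity was measured with CellProfiler, and a Z-score (t-test) was computed against 4 DMSO control wells in the same row. Negative values mean round (M1-like) cells and positive values mean elongated (M2-like) cells; the paper's hit cutoffs are Z <= -4 (M1) and Z >= 6 (M2). Scale: negative = round, M1-like.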

Row | SMILES | cell shape (Z-score)
1 | C=C1CC[C@@H]2C(C)(C)C[C@@H](O)C[C@@]2(C)[C@@H]1CC/C(=C/C(=O)OC)COC(C)=O | -1.45
2 | CC(=O)O[C@@H]1[C@@H](O)[C@H](C)O[C@@H](O[C@H]2[C@@H]3C=CO[C@@H](O[C@@H]4O[C@H](CO)[C@@H](O)[C@H](O)[C@H]4O)[C@@H]3[C@@]3(CO)O[C@@H]23)[C@@H]1OC(=O)/C=C/c1ccccc1 | 1.49
3 | CCN(CC)CCNC(=O)c1cc(S(C)(=O)=O)ccc1OC | 0.506
4 | CCN(CC)CC(=O)Nc1c(C)cccc1C | -0.534
5 | COc1ccc([C@@H]2CC(=O)c3c(O)cc(O)cc3O2)cc1O | 0.807
6 | COc1c(OC)c2occc2c2oc(=O)ccc12 | 5.35
7 | CON=C(C(=O)NC1C(=O)N2C(C(=O)O)=C(CSc3nc(=O)c(=O)[nH]n3C)CSC12)c1csc(N)n1 (centres undefined) | -0.265
8 | C/C=C(/C(=C/C)c1ccc(O)cc1)c1ccc(O)cc1 | 4.71
9 | CC1(C)C(=O)C=C[C@@]2(C)C1CC(=O)[C@]1(C)C2CC[C@@]2(C)[C@H](c3ccoc3)OC(=O)[C@H]3O[C@]321 (some centres undefined) | -1.42
10 | OC(CCN1CCCCC1)(c1ccccc1)C1CCCCC1 (centres undefined) | -1.27
11 | COC(=O)Nc1nc2cc(C(=O)c3cccs3)ccc2[nH]1 | -1.29
12 | CC(=O)CC(c1ccccc1)c1c(O)c2ccccc2oc1=O (centres undefined) | 3.52
13 | CCn1c(=O)[nH]c2ccccc21 | 0.543
14 | C=C1C(=O)O[C@H]2C1CC[C@@](C)(O)[C@@H]1C[C@H](O)C(=C)[C@@H]12 (some centres undefined) | 0.528
15 | CC(C)(C)CC(C)(C)c1ccc(O)c(-n2nc3ccccc3n2)c1 | -0.381
16 | O=C1NS(=O)(=O)c2ccccc21 | 2.76
17 | Cc1c(-c2ccnc(Nc3ccc(N4CCNCC4)cc3)n2)sc(=O)n1C | 9.91
18 | COc1cc(-c2oc3cc(O)cc(O)c3c(=O)c2O)ccc1O | -0.173
19 | C=C(CCCCCCCC(=O)O)C(=O)OC | 1.12
20 | O=c1cc(-c2ccccc2)oc2cc(O)cc(O)c12 | 4.86
21 | C=C1CC[C@@H]2[C@](C)(CO)[C@H](O)CC[C@@]2(C)[C@@H]1C/C=C1/C(=O)OC[C@H]1O | -2.32
22 | c1ccc(-c2ccc(C(c3ccccc3)n3ccnc3)cc2)cc1 (centres undefined) | 3.34

4 entries drawn at random from those above, as already listed:
Row | SMILES | cell shape (Z-score)
2 | CC(=O)O[C@@H]1[C@@H](O)[C@H](C)O[C@@H](O[C@H]2[C@@H]3C=CO[C@@H](O[C@@H]4O[C@H](CO)[C@@H](O)[C@H](O)[C@H]4O)[C@@H]3[C@@]3(CO)O[C@@H]23)[C@@H]1OC(=O)/C=C/c1ccccc1 | 1.49
4 | CCN(CC)CC(=O)Nc1c(C)cccc1C | -0.534
12 | CC(=O)CC(c1ccccc1)c1c(O)c2ccccc2oc1=O (centres undefined) | 3.52
17 | Cc1c(-c2ccnc(Nc3ccc(N4CCNCC4)cc3)n2)sc(=O)n1C | 9.91

Following part

Row | SMILES | cell shape (Z-score)
23 | CC(=O)NS(=O)(=O)c1ccc(N)cc1 | -0.328
24 | COc1ccc(NS(=O)(=O)c2ccc(I)cc2)cc1N1CCN(C)CC1 | 3.22
25 | c1ccc(N2CCN(CCCOc3ccc4c(c3)OCO4)CC2)cc1 | 0.669
26 | CC(=O)CCCCn1c(=O)c2c(ncn2C)n(C)c1=O | 0.92
27 | CC(C)(C)c1nc(-c2cccc(NS(=O)(=O)c3c(F)cccc3F)c2F)c(-c2ccnc(N)n2)s1 | 5.93
28 | CCCc1ncc(C(=O)O)s1 | 0.911
29 | CC(=O)Nc1nc(C)c(-c2ccc(Cl)c(S(=O)(=O)NCCO)c2)s1 | 2.45
30 | CC(C)c1ccc2c(c1)CCC1[C@](C)(CN)CCC[C@]21C (some centres undefined) | 1.4
31 | Clc1ccc(C2(c3ccc(-c4cn[nH]c4)cc3)CCNCC2)cc1 | 35.5
32 | C[C@@H]1O[C@@H](OC[C@H]2OC(Oc3c(-c4ccc(O)c(O)c4)oc4cc(O)cc(O)c4c3=O)[C@H](O)[C@@H](O)[C@@H]2O)[C@H](O)[C@H](O)[C@H]1O (some centres undefined) | 2.48
33 | CC(C(=O)Nc1cccc(/N=C/c2c(O)ccc3ccccc23)c1)c1ccccc1 (centres undefined) | 11
34 | COC(=O)c1c(C)[nH]c(C)c1C(=O)c1ccccc1Cc1ccccc1 | 1.34
35 | OCc1cc2c(cn1)[nH]c1ccccc12 | 1.25
36 | C[C@@H]1C[C@@H](O)C2[C@@](C)(CO)CCC[C@]2(C)[C@@]1(O)CCc1ccoc1 (some centres undefined) | -1.07
37 | CC1(C)CC(=O)C(C2C3=C(CC(C)(C)CC3=O)Oc3ccccc32)C(=O)C1 (centres undefined) | 0.64
38 | Cc1cc2ncc(-c3ccccc3)nc2cc1C | 2.23
39 | CC(=O)O[C@H]1C[C@@H](OC(C)=O)C(C)(C)C2C[C@@H](OC(C)=O)[C@]3(C)C(CC[C@@]4(C)[C@H](c5ccoc5)OC(=O)[C@H]5O[C@]543)[C@]21C (some centres undefined) | -2.55
40 | Cc1cc(C(C)(C)C)cc(C)c1CC1=NCCN1 | -0.0677
41 | COc1cc(C2c3c(cc(OC)c(O)c3OC)CC(CO)C2COC2OC(CO)C(O)C(O)C2O)cc(OC)c1O (centres undefined) | 2.38 ± 0.58
42 | O=C(O)c1ccccc1Nc1cccc(C(F)(F)F)c1 | 0.77
43 | O=C1Cc2cc(Cl)ccc2N1 | 0.476
44 | OC(CCN1CCCC1)(c1ccccc1)C1CCCCC1 (centres undefined) | -1.76

Row | SMILES | cell shape (Z-score)
45 | CN1CCc2c(c3ccccc3n2Cc2ccc(C(=O)NO)cc2)C1 | 2.6
46 | CC(=O)O[C@]1(C(C)=O)CCC2C3C=C(C)C4=CC(=O)CC[C@]4(C)C3CC[C@@]21C (some centres undefined) | -2.18
47 | CCC(C(N)=O)c1ccccc1 (centres undefined) | -0.362
48 | CC(=O)O[C@@]1(C)[C@@H]2CC(=C(C)C)C(=O)C[C@@]2(C)CC[C@H]1OC(=O)C1(C)OC1C (some centres undefined) | 0.417
49 | O=c1c(OC2OC(CO)C(O)C(O)C2OC2OC(CO)C(O)C(O)C2O)c(-c2ccc(O)cc2)oc2cc(O)cc(O)c12 (centres undefined) | 0.138 ± 1.7
50 | Cc1occc(=O)c1O | 4.83
51 | COC(CC(c1c(O)cc2cc(C)oc(=O)c2c1O)c1c(O)cc2cc(C)oc(=O)c2c1O)C(=O)O (centres undefined) | 2.13
52 | COc1cccc(C=NC=Nc2cccc(OC)c2)c1 | 0.294
53 | CC[N+](C)(CC)CCOC(=O)C(O)(c1ccccc1)C1CCCCC1 (centres undefined) | 2.22
54 | CN1CCCC(CN2c3ccccc3Sc3ccccc32)C1 (centres undefined) | 2.12
55 | C=C[C@H]1C[N@@]2CC[C@H]1C[C@@H]2[C@H](O)c1ccnc2ccc(OC)cc12 | 0.88
56 | CCCCc1nn(-c2ccccc2C(F)(F)F)c(=O)n1Cc1ccc(-c2ccccc2S(=O)(=O)NC(=O)c2sccc2C)cc1 | -0.189
57 | CC[C@@H]1C(=O)OC[C@@H]1Cc1cncn1C | 0.438
58 | C=C[C@@H](C1=CC(=O)C(OC)=C(OC)C1=O)c1ccccc1 | 2.57
59 | O=C1NC(=S)S/C1=C/c1cc(Br)ccc1OCc1ccccc1Br | 2.28
60 | CCCCOC(=O)c1cc2c(cn1)[nH]c1ccccc12 | 2.67
61 | Cc1ccc(S(=O)(=O)NC(=O)NN2CC3CCCC3C2)cc1 (centres undefined) | 2.77
62 | C[C@@H](N)[C@H]1CC[C@H](C(=O)Nc2ccncc2)CC1 | 19.1
63 | C=C1C(=O)O[C@@H]2/C=C(\C)CC/C=C(\C)CC[C@@H]12 | -1.08
64 | CC1OC(OCC2OC(Oc3cc(O)c4c(=O)c(-c5ccc(O)cc5)coc4c3)C(O)C(O)C2O)C(O)C(O)C1OC1OC(CO)C(O)C(O)C1O (centres undefined) | 1.42 ± 1.7
